One sequence from article PMC7191749, “Low phosphatase activity of LiaS and strong LiaR-DNA affinity explain the unusual LiaS to LiaR in vivo stoichiometry” (BMC Microbiology, 2020) can be followed below.

The chains behind the UniProt entries cited, without tags or fusion partners. Where a name states a change or a piece, a line headed by the entry shows the natural chain unless it says otherwise.
UniProt O32197: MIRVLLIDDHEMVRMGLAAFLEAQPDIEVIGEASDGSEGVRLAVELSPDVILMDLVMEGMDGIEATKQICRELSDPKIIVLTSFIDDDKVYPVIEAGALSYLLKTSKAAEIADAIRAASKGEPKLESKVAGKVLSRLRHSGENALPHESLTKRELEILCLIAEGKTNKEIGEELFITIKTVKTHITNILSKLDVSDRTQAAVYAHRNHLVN

Construct, isoform or probe ends are uncertain for at least one entry.

For this data set, the target named is LiaR~P (acetyl phosphate treated) (Bacillus subtilis 168) (UniProt O32197). Kind of data set: EMSA. Conditions: affinity slightly enhanced over unphosphorylated, EMSA: 10 mM Tris pH 7.5, 50 mM KCl, 1 mM DTT, 5 mM MgCl2, 10 ng herring sperm DNA, 2.5% glycerol, 25 C, 30 min, 9% native PAGE, recombinant protein, residues 1-211, label: 5'-32P, probe letters rebuilt from the primers and the genome.

Consider “TTCATGCAGATCCTCCTTTCGTTTTCCTTGTCTTCATCTTATACAAGTTGGAAGATATGCAAAACGAATCAGAGATTGATTTTTATATAAGACCGGAGTCGTATCTCGCACCGGACCCATTGGCACAAAAAAACGCCATGCACGAGGCATGGCGTTTTAAAACCCTTTACAGATGAACACTTGCTTCCCTTTC (double strand) [PliaI (-162 to +31)]”, for which the binding result is “binds”.
